No constants are given. Whether binding was seen depends on the method and setting. Some binding calls cover weakened binding; strength is not graded here.
B1: I031F02 (scFv)
scFv: QVQLVQSGAEVRKPGSSVKVSCKASGGSFSSHVFSWVRQAPGQGLEWVGGITPKFATPNYAQKFQHRVTITADELTRTVFMDLSGLRSEDTAVYYCARGYDSSAFRAFDIWGQGTMVTVSSGGGGSGGGGSGGGGSAQSVLTQPPSVSGAPGQRVTISCTGSSSNIGAGYDVQWYQQLPGTAPKLLIHGNNNRPSGVPDRFSGSKSGTSASLAITGLQDEDEADYYCQSYDSSLSFSGYVFGTGTKVTVLG
B2: I031F09 (scFv)
scFv: QVQLVQSGAEVKKPGASVKVSCTVSGDSFSRHGISWVRQAPGQGLEWMGWISVYNGDTKYAQKVQGRVTMTTDTSTNTVYMELRRLRSDDTAVYYCARDEGRDLLTGYYWPNFFDSWGRGTLVTVSSGGGGSGGGGSGGGGSALSYVLTQPPSASGTPGQRVTISCSGSRPNIGGNTVNWYQQLPGAAPKLLIYSNSQRPSGVPDRFSGSKYGTSASLAISGLQSDDEADYYCAAWDDSLTGPVFGGGTKLTVLG
B3: I031G11 (scFv)
scFv: QVQLVQSGAEVKKPGASVKVSCTVSGDSFSRHGISWVRQAPGQGLEWMGWISVYNGDTKYAQKVQGRVTMTTDTSTNTVYMELRRLRSDDTAVYYCARDEGRDLLTGYYWPNFFDSWGRGTLVTVSSGGGGSGGGGSGGGGSALSYVLTQPPSVSGTPGQKVTISCSGSRPNIGGNTVNWYQQLPGAAPKLLIYSNSQRPSGVPDRFSGSKYGTSASLAISGLQSDDEADYYCAAWDDSLTGPVFGGGTKLTVLG
B4: I067F05 (scFv)
scFv: QVQLQQSGAEVKKPGSSVKVSCKASGGTFSSYAISWVRQAPGQGLEWMGRIIPIVNMANYAQKFQGRVTLTADKSTGTAYMELTSLRSEDTAVYYCARENYDSLTGYYGAFDIWGKGTMVTVSSGGGGSGGGGSGGGGSQSVLTQPASVSGSPGQSITISCTGTSSDVGGYNYVSWYQQHPGKAPKLMIYEGSKRPSGVSNRFSGSKSGNTASLTISGLQAEDEADYYCSSYTTRSTRVFGGGTKLTVLG
B5: I050A12 (scFv)
scFv: EVQLVQSGAEVKKPGSSVKVSCKASGDTFSHYAINWVRQAPGQGLEWMGGIIPTFNAVKYAQKFQGRATITADGSTSTAYMELNSLRSEDTAVYYCATAPYDLLTHYFHYFDYWGQGTMVTVSSGGGGSGGGGSGGGGSALSSELTQDPAVSVTLGQTVRITCQGDSLRSYYPSWYQQKPGQAPVLVIYPKNIRPSGIPDRFSGSSSGNTASLTITGAQAEDEADYYCNSRASSGNHYVFATGTKLTVLG
B6: I051C04 (scFv)
scFv: QVQLQQSGAEVKKPGSSVKVSCRTSGGTFSNYGLSWVRQAPGQGLEWMGGVIPISSTIKYGQKFQDRLTIAADDLTNTTFMELSSLRPEDTAVYYCARAATTSQKHNKYAYYFYGMDVWGQGTMVTVSSGGGGSGGGGSGGGGSAQSALTQPASVSGSPGQSITISCTGTSSDVGGYNYVSWYQQHPGKAPKLMIYEVSNRPSGVSNRFSGSKSGNTASLTISGLQAEDEADYYCSSYTSSSTLVFGGGTKVTVLG
B7: I003F12S (scFv)
scFv: QVQLLQSAAELKKPGQSLKISCKGSGFTFTTYWIGWVRQLPGKGLEWMGIIYPGDSHTTYSPSFEGHVNISVDKSINTAYLQWSSLKASDTAMYYCARHDDDVLTGYYFESWGQGTMVTVSSGGGGSGGGGSGGGGSQSVLTQPASVSGSPGQSITISCTGTSSDVGGYNYVSWYQQHPGKAPKLMIYEGSKRPSGVSNRFSGSKSGNTASLTISGLQAEDEADYYCSSYTTRSTRVFGGGTKLTVLG
B8: I078D02 (scFv)
scFv: QVQLQQSGAEVKKPGASVKVSCKASGYTFTSYGISWVRQAPGQGLEWMGWISAYNGNTNYAQKLQGRVTMTTDTSTSTAYMELRSLRSDDTAVYYCARVYYDILTGYNLFFDYWGKGTMVTVSSGGGGSGGGGSGGGGSQSVLTQPASVSGSPGQSITISCTGTSSDVGGYNYVSWYQQHPGKAPKLMIYEGSKRPSGVSNRFSGSKSGNTASLTISGLQAEDEADYYCSSYTTRSTRVFGGGTKLTVLG
B9: I026C04-K (scFv)
scFv: QVQLVQSGAEVKKPGSSVKVSCRASGGSFNKHAISWVRQAPGRGLEWMGGILPMYGTANYAQKFQGRVTITADKLTNTVYMDLSRLRYEDTAVYYCARELGLSIVGATTGALDMWGKGTLVTVSSGGGGSGGGGSGGGGSAQSVLTQPPSVSAAPGQKVTISCSGSSSNIGNNYVSWYQQIPGTAPKLLIYENNKRPSGIPDRFSGSKSGASATLDITGLQTGDEADYYCGTWHSSQVVFGGGTKLTVLG
B10: I008C02 (scFv)
scFv: AVQLQESGPGLVKPSETLSLTCSVSGASMTTNKFYWSWIRQPPGKGLEWIGNINYSKSTNYNPSLKSRITISVDTSKNQLSLKLNSVTAADTAVYYCARHVRDYDILTGYYRGHYFDYWGQGTMVTVSSGGGGSGGGGSGGGGSQSVLTQPASVSGSPGQSITISCTGTSSDVGGYNYVSWYQQHPGKAPKLMIYEGSKRPSGVSNRFSGSKSGNTASLTISGLQAEDEADYYCSSYTTRSTRVFGGGTKLTVLG
B11: I018C02 (scFv)
scFv: QVQLQQSGSELKKPGASVIVSCKVSGYSLTKMSMHWVRQSPGEGLEWVGGIDPETRQPVYAQKFQGRVTITKDTSASAAYMELSSLGSEDTALYYCARATYDPLTGYSFDGFDIWGQGTLVTVSSGGGGSGGGGSGGGGSQSVLTQPASVSGSPGQSITISCTGTSSDVGGYNYVSWYQQHPGKAPKLMIYEGSKRPSGVSNRFSGSKSGNTASLTISGLQAEDEADYYCSSYTTRSTRVFGGGTKLTVLG
B12: I008B01 (scFv)
scFv: QVQLVQSGAEVMKPGASVKVSCKASGYNFNNYAMQWVRQAPGQRLEWMGWIVPGNGKTKYSQKFQDRVTIARDTSASTVYMELSSLTSEDTAMYYCARATYDPLTGYSFDGFDIWGQGTTVTVSSGGGGSGGGGSGGGGSQSVLTQPASVSGSPGQSITISCTGTSSDVGGYNYVSWYQQHPGKAPKLMIYEGSKRPSGVSNRFSGSKSGNTASLTISGLQAEDEADYYCSSYTTRSTRVFGGGTKLTVLG
B13: I016F04 (scFv)
scFv: QVQLQQSGSELKKPGASVKVSCKVSGYSLTKMSMHWVRQSPGEGLEWVGGIDPETRQPVYAQKFQGRVTITKDTSASAAYMELSSLGSEDTALYYCARATYDPLTGYSFDGFDIWGQGTLVTVSSGGGGSGGGGSGGGGSQSVLTQPASVSGSPGQSITISCTGTSSDVGGYNYVSWYQQHPGKAPKLMIYEGSKRPSGVSNRFSGSKSGNTASLTISGLQAEDEADYYCSSYTTRSTRVFGGGTKLTVLG

Amino acid sequences for entries named in this document (tags omitted). A change or cut given only in a name is not applied to a line headed by its entry. Residues count along the entry.
UniProt Q9WU72, residues 127-309: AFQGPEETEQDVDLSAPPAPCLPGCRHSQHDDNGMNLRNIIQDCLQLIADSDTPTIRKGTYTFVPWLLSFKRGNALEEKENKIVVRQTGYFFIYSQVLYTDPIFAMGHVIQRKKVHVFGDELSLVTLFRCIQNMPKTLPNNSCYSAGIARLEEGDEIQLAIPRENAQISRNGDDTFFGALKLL
UniProt Q9Y275: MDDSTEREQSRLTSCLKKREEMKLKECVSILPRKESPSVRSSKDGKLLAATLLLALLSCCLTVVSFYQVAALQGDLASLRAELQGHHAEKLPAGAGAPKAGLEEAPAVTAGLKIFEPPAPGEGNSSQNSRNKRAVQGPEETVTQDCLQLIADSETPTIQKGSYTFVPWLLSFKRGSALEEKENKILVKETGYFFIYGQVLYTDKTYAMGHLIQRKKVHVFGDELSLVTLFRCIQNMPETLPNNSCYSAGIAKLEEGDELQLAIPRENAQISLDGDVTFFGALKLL

Assays:
mouse BLyS (mouse) = mouse BLyS (mouse) (UniProt Q9WU72); assay: phage ELISA
[1] = molecular target: soluble form of human BLyS (human) (UniProt Q9Y275); assay: phage ELISA
[2] = molecular target: membrane-bound BLyS on U937 plasma membranes (human) (UniProt Q9Y275); assay: phage ELISA on U937 membranes
[3] = molecular target: soluble form of human BLyS (human) (UniProt Q9Y275); assay: competition phage ELISA on U937 membranes; signal competed out by free BLyS
[4] = molecular target: biotinylated BLyS (human) (UniProt Q9Y275); assay: receptor binding inhibition assay on IM9 cells, phage scFv
[5] = molecular target: biotinylated BLyS (human) (UniProt Q9Y275); assay: receptor binding inhibition assay on IM9 cells, purified scFv

Binder	binding (mouse BLyS (mouse))	further results
B1	binds	
B2	binds	
B3	binds	
B4	binds	
B5	binds	
B6	binds	
B7	binds	binding [1]: binds; binding [2]: binds; binding [3]: binds
B8	binds	
B9		binding [1]: binds; binding [4]: binds; binding [5]: binds
B10	binds	
B11	binds	
B12	binds	
B13	binds	

— patent US20030223996A1 (published 2003)
